The values that follow come from the supplement of paper PMC7830784.

Structures can show the parent of a compound that is named as a salt. Some of the results follow. Repeats in this data set agree poorly, so a single value says little.

The subject of this assay is Brugia pahangi adult female. As to the kind of experiment: motility inhibition on day 3 relative to DMSO vehicle; higher = more active. Particulars: 10 µM; 3 days.
In the case of `CN(C)C(=O)Oc1cc(OC(=O)N(C)C)cc(C(O)CNC(C)(C)C)c1` (stereo not given) [bambuterol hydrochloride], the “motility inhibition on day 3” value amounted to 0.26%. Consider `C[N+]1(C)[C@@H]2C[C@@H](OC(=O)[C@H](CO)c3ccccc3)C[C@H]1[C@@H]1O[C@@H]12` [Scopolamine Methyl Bromide], for which the “motility inhibition on day 3” value is 34.4%. With `C[N+]1(C)[C@@H]2C[C@@H](OC(=O)[C@H](CO)c3ccccc3)C[C@H]1[C@@H]1O[C@@H]12` [methscopolamine bromide], the “motility inhibition on day 3” value worked out at 12.4%. As to `CCn1cc(C(=O)O)c(=O)c2cc3c(cc21)OCO3` [oxolinic acid], the “motility inhibition on day 3” value was found to be 22.6%. As for `CCN(C)C(=O)Oc1cccc([C@H](C)N(C)C)c1` [rivastigmine tartrate], the “motility inhibition on day 3” value came to 9.42%.

As to `COC(=O)C1=CCCN(C)C1` [Arecoline hydrobromide], the “motility inhibition on day 3” value was 33.8%. On to `COc1cc2c(cc1OC)[C@@]13CCN4CC5=CCO[C@H]6CC(=O)N2[C@H]1[C@H]6[C@H]5C[C@H]43` [brucine], for which the “motility inhibition on day 3” value stood at 0.779%. Take `CC(C)(C)NCC(O)c1cc(Cl)c(N)c(Cl)c1` (stereo not given) [clenbuterol hydrochloride]: the “motility inhibition on day 3” value was determined as 8.32%.

Consider `O=C(NC(=O)c1c(F)cccc1F)Nc1cc(Cl)c(OC(F)(F)C(F)C(F)(F)F)cc1Cl` (stereo not given) [lufenuron], for which the “motility inhibition on day 3” value is 56%. Consider `CNCC(=O)c1ccc(O)c(O)c1` [adrenolone hydrochloride], for which the “motility inhibition on day 3” value was determined as 8.74%. With `COc1ccc(Cc2nccc3cc(OC)c(OC)cc23)cc1OC` [Papaverine hydrochloride] the figure was 10.9%; with `CCC1(CC)C(=O)C=CNC1=O` [pyrithyldione], 18.1%.

For the compound `C[C@]12CC[C@H]3[C@@H](CC[C@@]45O[C@@H]4C(O)=C(C#N)C[C@]35C)[C@@H]1CC[C@@H]2O` [trilostane], the “motility inhibition on day 3” value was less than 0%.

On to `O=C(N/N=C/c1ccc([N+](=O)[O-])o1)c1cc([N+](=O)[O-])cc([N+](=O)[O-])c1O` [nifursol], for which the “motility inhibition on day 3” value worked out at 15%. Turning to `Oc1cc(Cl)ccc1Oc1ccc(Cl)cc1Cl` [triclosan], the “motility inhibition on day 3” value is 35.7%.

With `CC1(C)C(C=C(Cl)Cl)C1C(=O)OC(C#N)c1cccc(Oc2ccccc2)c1` (stereo not given) [cypermethrin], the “motility inhibition on day 3” value was 13.1%. For `O=C1CN=C(c2ccccn2)c2cc(Br)ccc2N1` [Bromazepam], the “motility inhibition on day 3” value is 0.612%. With `Cc1nnc2n1-c1ccc(Cl)cc1C(c1ccccc1Cl)=NC2` [Triazolam] the figure was 12.6%; with `COc1ccc(CCN2CCC(Nc3nc4ccccc4n3Cc3ccc(F)cc3)CC2)cc1` [astemizole], 25.9%.

Regarding `CC(=O)O[C@H]1C[C@H](O[C@H]2[C@@H](O)C[C@H](O[C@H]3[C@@H](O)C[C@H](O[C@H]4CC[C@@]5(C)[C@H](CC[C@@H]6[C@@H]5C[C@@H](O)[C@]5(C)[C@@H](C7=CC(=O)OC7)CC[C@]65O)C4)O[C@@H]3C)O[C@@H]2C)O[C@H](C)[C@H]1O[C@@H]1O[C@H](CO)[C@@H](O)[C@H](O)[C@H]1O` [lanatoside c], the “motility inhibition on day 3” value worked out at 8.55%. Take `O=C1CN=C(c2ccccc2)c2cc(Cl)ccc2N1CC1CC1` [Prazepam]: the “motility inhibition on day 3” value was determined as 19.3%. As for `CC(C)C[C@H](CN)CC(=O)O` [pregabalin], the “motility inhibition on day 3” value was 4.67%.

On to `CN(C)C(=S)SSC(=S)N(C)C` [thiram], for which the “motility inhibition on day 3” value stood at 58.9%. In the case of `CCC(C)(C)O` [amylene hydrate] it was 32.9%; in that of `CC(C)(C)NCC(O)c1ccccc1Cl` (stereo not given) [tulobuterol], less than 0%. Take `C[C@]12Cc3c[nH]nc3C[C@@H]1CC[C@@H]1[C@@H]2CC[C@@]2(C)[C@H]1CC[C@]2(C)O` [Stanozolol]: the “motility inhibition on day 3” value was 9.85%.

Take `C[N+]12CCC(CC1)C(OC(=O)C(O)(c1ccccc1)c1ccccc1)C2` (stereo not given) [clidinium bromide]: the “motility inhibition on day 3” value is less than 0%. In the case of `OC[C@@H](O)[C@H]1O[C@@H]2O[C@H](C(Cl)(Cl)Cl)O[C@@H]2[C@H]1O` [chloralose] it was 14.2%; in that of `CC(=O)[C@H]1CC[C@H]2[C@@H]3CC[C@@H]4C[C@H](O)CC[C@]4(C)[C@H]3CC[C@]12C` [eltanolone], less than 0%; in that of `CC(CC(C(N)=O)(c1ccccc1)c1ccccc1)N(C)C` (stereo not given) [aminopentamide sulfate], 11.3%. `COC(=O)C(c1ccccc1)C1CCCCN1` (stereo not given) [methylphenidate hydrochloride]: the “motility inhibition on day 3” value came to 3.57%. With `CO[C@]12C[C@@H](COC(=O)c3cncc(Br)c3)CN(C)[C@@H]1Cc1cn(C)c3cccc2c13` [nicergoline] the figure was 10.6%; with `O=[N+]([O-])c1ccc([As](=O)(O)O)cc1` [nitarsone], 29.1%. In the case of `CNC(C)[C@H](O)c1ccccc1` (stereo not given in full) [ephedrine (1r,2s) hydrochloride] it was less than 0%. Turning to `CCN(C(C)=O)c1cccc(-c2ccnc3c(C#N)cnn23)c1` [zaleplon], the “motility inhibition on day 3” value amounted to 27%. In the case of `CC1(C)C(C=C(Cl)Cl)C1C(=O)OCc1cccc(Oc2ccccc2)c1` (stereo not given) [permethrin] it was 8.45%; in that of `CCNC1(c2cccs2)CCCCC1=O` (stereo not given) [tiletamine hydrochloride], 7.4%. For `Cc1ccc(O)cc1.Cc1cccc(O)c1.Cc1ccccc1O` [cresol], the “motility inhibition on day 3” value was 15.8%. Take `CC[C@H]1[C@@H]2C[C@H]3[C@@H]4N(C)c5ccccc5[C@]45C[C@@H]([C@@H]2[C@H]5O)N3[C@@H]1O` [ajmaline]: the “motility inhibition on day 3” value is less than 0%. In the case of `C[C@@H]1CC[C@H]2[C@@H](C)C(=O)O[C@@H]3O[C@@]4(C)CC[C@@H]1[C@]32OO4` [artemisinin], the “motility inhibition on day 3” value is 16.1%. In the case of `CNC(C)C(O)c1ccccc1` (stereo not given) [racephedrine hydrochloride], the “motility inhibition on day 3” value was less than 0%. With `CC[C@H]1CN2CCc3cc(OC)c(OC)cc3[C@@H]2C[C@@H]1C[C@H]1NCCc2cc(OC)c(OC)cc21` [emetine] the figure was less than 0%; with `COc1cc([C@@H]2c3cc4c(cc3[C@H](O)[C@H]3COC(=O)[C@H]23)OCO4)cc(OC)c1OC` [podofilox], 0.537%.

For the compound `Cc1cccc(C)c1NC1=NCCCS1` [Xylazine hydrochloride], the “motility inhibition on day 3” value worked out at 15%. With `CC(=O)OCC1=C(C(=O)O)N2C(=O)[C@@H](NC(=O)CCC[C@@H](N)C(=O)O)[C@H]2SC1` [cephalosporin c sodium], the “motility inhibition on day 3” value amounted to 14.1%. In the case of `NC(=O)C[S+]([O-])C(c1ccccc1)c1ccccc1` (stereo not given) [modafinil] it was 38.7%; in that of `CCC1(CCC(C)C)C(=O)NC(=O)N=C1O` (stereo not given), 4.3%. With `C[C@@H](CO)NC(=O)[C@@H]1C=C2c3cccc4[nH]cc(c34)C[C@H]2N(C)C1` [ergonovine maleate] the figure was less than 0%; with `Clc1ccc(C(OCCN2CCCCC2)c2ccccc2)cc1` (stereo not given) [cloperastine hydrochloride], 5.57%. Take `O=c1[nH]c(=O)n(Cl)c(=O)n1Cl` [troclosene potassium]: the “motility inhibition on day 3” value was 14%. Regarding `NC(=O)CN1CCCC1=O` [piracetam], the “motility inhibition on day 3” value came to 9.24%. On to `C=CCN1C[C@H](C(=O)N(CCCN(C)C)C(=O)NCC)C[C@@H]2c3cccc4[nH]cc(c34)C[C@H]21` [Cabergoline], for which the “motility inhibition on day 3” value is 12.8%. In the case of `O=P1(NCCCl)OCCCN1CCCl` (stereo not given) [ifosfamide] it was 12.6%; in that of `CC(C)c1c(CN(C)C(C)Cc2ccccc2)n(C)n(-c2ccccc2)c1=O` (stereo not given) [famprofazone], 0.96%; in that of `Oc1ccc(Cl)cc1` [parachlorophenol], 3.24%. In the case of `CCCCCCCCC(=O)NCc1ccc(O)c(OC)c1` [N-Vanillylnonanamide], the “motility inhibition on day 3” value stood at 23.4%. Turning to `CN1C(=O)C(O)N=C(c2ccccc2)c2cc(Cl)ccc21` (stereo not given) [Temazepam], the “motility inhibition on day 3” value came out at 12.7%.

As to `Nc1ccc([As](=O)(O)O)cc1` [arsanilic acid], the “motility inhibition on day 3” value was 1.24%. With `NCCCNCCSP(=O)(O)O` [amifostine] the figure was less than 0%; with `O=[N+]([O-])OCC(CO[N+](=O)[O-])O[N+](=O)[O-]` [nitroglycerin], 2.36%; with `C#CCN(C)[C@H](C)Cc1ccccc1` [R(-)-Deprenyl hydrochloride], less than 0%.

For `C#CCN(C)[C@H](C)Cc1ccccc1` [selegiline hydrochloride], the “motility inhibition on day 3” value amounted to 24.7%. With `CN(C)C(=O)Oc1ccc[n+](C)c1` [Pyridostigmine bromide] the figure was 32.9%.

Turning to `C[C@@H]1O[C@@H](O[C@@H]2C=C3CC[C@@H]4[C@H](CC[C@]5(C)[C@@H](c6ccc(=O)oc6)CC[C@]45O)[C@@]3(C)CC2)[C@H](O)[C@H](O)[C@H]1O` [proscillaridin], the “motility inhibition on day 3” value was determined as 87.9%. Regarding `CC(=O)Nc1cc([As](=O)(O)O)ccc1O` [acetarsol], the “motility inhibition on day 3” value turned out to be 19.7%. Take `CC(=O)[O][Hg][c]1ccccc1` [phenylmercuric acetate]: the “motility inhibition on day 3” value is 99.4%. With `O=c1[nH]c2ccccc2n1C1CCN(CCCC(c2ccc(F)cc2)c2ccc(F)cc2)CC1` [Pimozide] the figure was 96%. For the compound `CN1CCc2cc3c(cc2C1O)OCO3` (stereo not given) [hydrastinine hydrochloride], the “motility inhibition on day 3” value was 6.34%. Regarding `NP(N)(=O)NC(=O)c1ccc(F)cc1` [flurofamide], the “motility inhibition on day 3” value came out at 2.47%. With `CNC(=O)Oc1ccc2c(c1)[C@]1(C)CCN(C)[C@@H]1N2C` [(-)-Physostigmine] the figure was 47.1%; with `CN1[C@H]2C[C@H](OC(=O)[C@H](CO)c3ccccc3)C[C@@H]1[C@@H](O)C2` [anisodamine hydrobromide], less than 0%. In the case of `CN(C)C(=O)Oc1cccc([N+](C)(C)C)c1` [Neostigmine bromide] it was less than 0%; in that of `COc1ccc(C(CN(C)C)C2(O)CCCCC2)cc1` (stereo not given) [venlafaxine hydrochloride], 12%; in that of `C[C@H](N)[C@H](O)c1ccccc1` [L(-)-Norephedrine], 0.783%. In the case of `CC(C)C[C@H]1C(=O)N2CCC[C@H]2[C@]2(O)O[C@](NC(=O)[C@@H]3C[C@@H]4c5cccc6[nH]cc(c56)C[C@H]4N(C)C3)(C(C)C)C(=O)N12.CC(C)[C@@]1(NC(=O)[C@@H]2C[C@@H]3c4cccc5[nH]cc(c45)C[C@H]3N(C)C2)O[C@@]2(O)[C@@H]3CCCN3C(=O)[C@H](Cc3ccccc3)N2C1=O.CC(C)[C@H]1C(=O)N2CCC[C@H]2[C@]2(O)O[C@](NC(=O)[C@@H]3C[C@@H]4c5cccc6[nH]cc(c56)C[C@H]4N(C)C3)(C(C)C)C(=O)N12.CCC(C)[C@H]1C(=O)N2CCC[C@H]2[C@]2(O)O[C@](NC(=O)[C@@H]3C[C@@H]4c5cccc6[nH]cc(c56)C[C@H]4N(C)C3)(C(C)C)C(=O)N12` [Ergoloid Mesylates] it was 11.6%.
